The results in this text go back to patent US4431742A, “Radioreceptor assay for benzodiazepines in saliva” (The United States of America as represented by the …, priority 1981, dated 1984).

This assay relates to diazepam receptor (fresh rat frontal cortex). Nature of the assay: radioreceptor assay: inhibition of ^3 H-diazepam binding (selectivity, drugs incubated with saliva). The following applies: 10^-5 M, ^3 H-diazepam 0.50 nM.

Turning to `CC(C)NCC(O)COc1cccc2ccccc12` (racemic) [dl-propranolol], the “inhibition of ^3 H-diazepam binding compared with saliva itself” value (“inhibition … compared with saliva itself” for short) is recorded as “failed to inhibit ^3 H-diazepam binding more than saliva itself”. For `OCCN1CCN(CCCN2c3ccccc3Sc3ccc(C(F)(F)F)cc32)CC1` [fluphenazine], the “inhibition … compared with saliva itself” value was “failed to inhibit ^3 H-diazepam binding more than saliva itself”.

In the case of `O=C(CCCN1CCC(O)(c2ccc(Cl)cc2)CC1)c1ccc(F)cc1` [haloperidol], the “inhibition … compared with saliva itself” value is “failed to inhibit ^3 H-diazepam binding more than saliva itself”.
